Experimental data published in the supplement of paper PMC7024190.
The other results are listed elsewhere or left out. Single values are uncertain here, since repeats match poorly.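 The cells were human embryonic kidney cells carrying a Renilla luciferase gene, driven by the HSV-TK promoter, on a plasmid put in briefly by transfection. This is the first-round screen of about ten thousand compounds, looking for ones that raise reporter output.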

Key:
HEK 293FT [1] = test: log relative Renilla luciferase luminescence (reporter expression vs reference, reference not stated) (log (base not stated)); higher = higher recombinant reporter expression; conditions: 10 µM; time after transfection 48 h
Protocol: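 HEK 293FT cells transiently transfected with pRL-TK (Renilla luciferase) were treated with compounds at 10 uM and luminescence was read about 42 h later. Values are log relative Renilla luminescence (log base and reference not stated). Single-pass screen; 2080 natural products library.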

HEK 293FT [2] = test: as above; conditions: 10 µM; time after transfection 48 h; remark: listed apart in the source

SMILES | log (HEK 293FT [1]) | log (HEK 293FT [2])
COc1cc([C@@H]2Oc3cc(/C=C/CO)cc(OC)c3O[C@H]2CO)cc(OC)c1O [Nitidanin] | 0.138 | –
N[C@@H](C(=O)N[C@@H]1C(=O)N2C(C(=O)O)=C(CSc3cn[nH]n3)CS[C@H]12)c1ccc(O)cc1 | – | 0.00982
CCOc1cc(N)c(Cl)cc1C(=O)NCC1CN(Cc2ccc(F)cc2)CCO1 (centres undefined) | – | -0.165
CN(C)[C@@H]1C(O)=C(C(=O)NCN2CCCC2)C(=O)[C@@]2(O)C(O)=C3C(=O)c4c(O)cccc4[C@@](C)(O)[C@H]3C[C@@H]12 | – | 0.252
CCOC(=O)C1=C(COCCN)NC(C)=C(C(=O)OC)C1c1ccccc1Cl (centres undefined) | – | 0.082
CN(C)CCC=C1c2ccccc2COc2ccccc21 [Doxepin] | – | 0.0336
CC[C@]1(O)C[C@@H]2CN(CCc3c([nH]c4ccccc34)[C@@](C(=O)OC)(c3cc4c(cc3OC)N(C)[C@H]3[C@@](O)(C(N)=O)[C@H](O)[C@]5(CC)C=CCN6CC[C@]43[C@@H]65)C2)C1 | – | -0.705
O=C(O[C@@H]1C[C@@H]2C[C@H]3C[C@H](C1)N2CC3=O)c1c[nH]c2ccccc12 | – | 0.171
COc1cc2nc(N(C)CCCNC(=O)C3CCCO3)nc(N)c2cc1OC (centres undefined) | – | -1.07
CC(=O)OCC(CCn1cnc2cnc(N)nc21)COC(C)=O | – | 0.161
CC(C)(C)NCC(O)c1ccc(O)c(CO)c1 (centres undefined) | – | 0.054
CN(C)CCC(c1ccc(Cl)cc1)c1ccccn1 (centres undefined) [Chlorpheniramine] | – | -0.0697
Nc1nc(Cl)nc2c1ncn2[C@@H]1O[C@H](CO)[C@@H](O)[C@H]1O | – | -0.311
C#C[C@]1(O)CC[C@H]2[C@@H]3CCc4cc(O)ccc4[C@H]3CC[C@@]21C | – | 0.0524

Single values from the list:
Value for `CCOC(=O)C1=C(COCCN)NC(C)=C(C(=O)OC)C1c1ccccc1Cl` (centres undefined) under log (HEK 293FT [2]): 0.082
Value for `COc1cc([C@@H]2Oc3cc(/C=C/CO)cc(OC)c3O[C@H]2CO)cc(OC)c1O` [Nitidanin] under log (HEK 293FT [1]): 0.138
